Source: US9303040B2, “Substituted piperazines as AKT inhibitors” (ARRAY BIOPHARMA INC., priority 2006, dated 2016)
Counter-ions that a name gives are not always drawn. Some entries share one result that the patent states for a list of compounds.

Protein sequences, listed by entry. Tags and fused reporters are not part of them. Lines headed by an entry give the natural chain unless they say otherwise; changes in a name come on top.
UniProt P31749: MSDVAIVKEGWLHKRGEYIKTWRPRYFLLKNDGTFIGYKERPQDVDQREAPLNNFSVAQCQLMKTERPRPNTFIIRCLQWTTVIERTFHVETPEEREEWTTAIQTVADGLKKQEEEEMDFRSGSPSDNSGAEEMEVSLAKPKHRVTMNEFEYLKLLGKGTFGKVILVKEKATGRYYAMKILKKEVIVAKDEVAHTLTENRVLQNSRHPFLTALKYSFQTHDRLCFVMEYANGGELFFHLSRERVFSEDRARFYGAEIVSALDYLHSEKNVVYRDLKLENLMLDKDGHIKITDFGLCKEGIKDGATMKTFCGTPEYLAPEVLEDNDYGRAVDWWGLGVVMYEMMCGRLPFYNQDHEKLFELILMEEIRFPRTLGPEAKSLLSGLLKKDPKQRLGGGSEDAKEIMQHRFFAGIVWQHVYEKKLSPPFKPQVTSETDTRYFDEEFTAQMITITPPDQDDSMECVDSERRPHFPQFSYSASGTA

Target: T1, full-length human recombinant active AKT-1 (Homo sapiens, UniProt P31749)
T1 construct: The AKT-1 used is made from full-length, human recombinant AKT-1
Experiment: AKT-1 Kinase Assay (IMAP fluorescence polarization, phosphorylation of fluorescently-labeled peptide)
Type: biochemical

Row | SMILES | IC50
1 | N[C@H](Cc1ccc(Cl)cc1)C(=O)N1CCN(c2ncnc3c2C[S+]([O-])C3)CC1 (stereo partly drawn) [Example 68, (R)-2-amino-3-(4-chlorophenyl)-1-(4-(6-oxido-5,7-dihydrothieno[3,4-d]pyrimidin-4-yl)piperazin-1-yl)propan-1-one] | < 10 µM
2 | CC1c2c(ncnc2N2CCN(C(=O)[C@H](N)Cc3ccc(Cl)cc3)CC2)C[S+]1[O-] (stereo partly drawn) [Example 70, (2R)-2-amino-3-(4-chlorophenyl)-1-(4-(5-methyl-6-oxido-5,7-dihydrothieno[3,4-d]pyrimidin-4-yl)piperazin-1-yl)propan-1-one] | < 10 µM
3 | CC(C)NCC(C(=O)N1CCN(c2ncnc3c2[C@@H](C)SC3)[C@@H](C)C1)c1ccc(Cl)cc1 (stereo partly drawn) [Example 59, 2-(4-chlorophenyl)-3-(isopropylamino)-1-((S)-3-methyl-4-((R)-5-methyl-5,7-dihydrothieno[3,4-d]pyrimidin-4-yl)piperazin-1-yl)propan-1-one] | < 10 µM
4 | C[C@@H]1SCc2ncnc(N3CCN(C(=O)C4(c5cccc(Cl)c5)CCNCC4)CC3)c21 [Example 49, (S)-(4-(3-chlorophenyl)piperidin-4-yl)(4-(5-methyl-5,7-dihydrothieno[3,4-d]pyrimidin-4-yl)piperazin-1-yl)methanone] | < 10 µM
5 | CC1SCc2ncnc(N3CCN(C(=O)C4(c5ccc(Cl)cc5)CCNCC4)CC3)c21 (stereo not shown) [Example 73, (4-(4-chlorophenyl)piperidin-4-yl)(4-(5-methyl-5,7-dihydrothieno[3,4-d]pyrimidin-4-yl)piperazin-1-yl)methanone] | < 10 µM
6 | CC1SCc2ncnc(N3CCN(C(=O)C(CN4CCCC4)c4ccc(Cl)cc4)CC3)c21 (stereo not shown) [Example 17, 2-(4-chlorophenyl)-1-(4-(5-methyl-5,7-dihydrothieno[3,4-d]pyrimidin-4-yl)piperazin-1-yl)-3-(pyrrolidin-1-yl)propan-1-one] | < 10 µM
7 | C[C@@H]1SCc2ncnc(N3CCN(C(=O)C(CC(C)(C)N)c4ccc(F)c(F)c4)CC3)c21 (stereo partly drawn) [Example 35, 4-amino-2-(3,4-difluorophenyl)-4-methyl-1-(4-((S)-5-methyl-5,7-dihydrothieno[3,4-d]pyrimidin-4-yl)piperazin-1-yl)pentan-1-one] | < 10 µM
8 | CC(C)NCC(C(=O)N1CCN(c2ncnc3c2[C@H](C)SC3)[C@@H](C)C1)c1ccc(Cl)cc1 (stereo partly drawn) [Example 55, 2-(4-chlorophenyl)-3-(isopropylamino)-1-((S)-3-methyl-4-((S)-5-methyl-5,7-dihydrothieno[3,4-d]pyrimidin-4-yl)piperazin-1-yl)propan-1-one] | < 10 µM
9 | CC1c2c(ncnc2N2CCN(C(=O)[C@H](N)Cc3ccc(Cl)cc3)CC2)CS1(=O)=O (stereo partly drawn) [Example 69, (2R)-2-amino-3-(4-chlorophenyl)-1-(4-(5-methyl-6,6-dioxido-5,7-dihydrothieno[3,4-d]pyrimidin-4-yl)piperazin-1-yl)propan-1-one] | < 10 µM
10 | CC(C)NCC(C(=O)N1CCN(c2ncnc3c2C(C)SC3)CC1)c1ccc(Cl)cc1 (stereo not shown) [Example 19, 2-(4-chlorophenyl)-3-(isopropylamino)-1-(4-(5-methyl-5,7-dihydrothieno[3,4-d]pyrimidin-4-yl)piperazin-1-yl)propan-1-one] | < 10 µM
11 | C[C@@H]1SCc2ncnc(N3CCN(C(=O)C(CN4CCCC4)c4ccc(Cl)cc4)CC3)c21 (stereo partly drawn) [Example 2, 2-(4-chlorophenyl)-1-(4-((S)-5-methyl-5,7-dihydrothieno[3,4-d]pyrimidin-4-yl)piperazin-1-yl)-3-(pyrrolidin-1-yl)propan-1-one dihydrochloride] | < 10 µM
12 | C[C@@H]1SCc2ncnc(N3CCN(C(=O)C(Cc4ccc(Cl)cc4)C4(N)CC4)CC3)c21 (stereo partly drawn) [Example 31, 2-(1-aminocyclopropyl)-3-(4-chlorophenyl)-1-(4-((S)-5-methyl-5,7-dihydrothieno[3,4-d]pyrimidin-4-yl)piperazin-1-yl)propan-1-one] | < 10 µM
13 | C[C@@H]1SCc2ncnc(N3CCN(C(=O)C(CC(C)(C)N)c4ccc(Cl)cc4)CC3)c21 (stereo partly drawn) [Example 4, 4-amino-2-(4-chlorophenyl)-4-methyl-1-(4-((S)-5-methyl-5,7-dihydrothieno[3,4-d]pyrimidin-4-yl)piperazin-1-yl)pentan-1-one dihydrochloride] | < 10 µM
14 | C[C@H]1SCc2ncnc(N3CCN(C(=O)C4(c5cccc(Cl)c5)CCNCC4)CC3)c21 [Example 51, (R)-(4-(3-chlorophenyl)piperidin-4-yl)(4-(5-methyl-5,7-dihydrothieno[3,4-d]pyrimidin-4-yl)piperazin-1-yl)methanone] | < 10 µM
15 | CC1SCc2ncnc(N3CCN(C(=O)C(Cc4ccc(Cl)cc4)C4(N)CC4)CC3)c21 (stereo not shown) [Example 22, 2-(1-aminocyclopropyl)-3-(4-chlorophenyl)-1-(4-(5-methyl-5,7-dihydrothieno[3,4-d]pyrimidin-4-yl)piperazin-1-yl)propan-1-one] | < 10 µM
16 | CC(C)NCC(C(=O)N1CCN(c2ncnc3c2[C@H](C)SC3)CC1)c1ccc(Cl)cc1 (stereo partly drawn) [Example 3, 2-(4-chlorophenyl)-3-(isopropylamino)-1-(4-((S)-5-methyl-5,7-dihydrothieno[3,4-d]pyrimidin-4-yl)piperazin-1-yl)propan-1-one dihydrochloride] | < 10 µM

Row | SMILES | IC50
17 | C[C@H]1SCc2ncnc(N3CCN(C(=O)C(Cc4ccc(Cl)cc4)C4(N)CC4)CC3)c21 (stereo partly drawn) [Example 42, 2-(1-aminocyclopropyl)-3-(4-chlorophenyl)-1-(4-((R)-5-methyl-5,7-dihydrothieno[3,4-d]pyrimidin-4-yl)piperazin-1-yl)propan-1-one] | < 10 µM
18 | C[C@@H]1SCc2ncnc(N3CCN(C(=O)[C@@H](CC(C)(C)N)c4ccc(Cl)cc4)CC3)c21 [Example 63, (S)-4-amino-2-(4-chlorophenyl)-4-methyl-1-(4-((S)-5-methyl-5,7-dihydrothieno[3,4-d]pyrimidin-4-yl)piperazin-1-yl)pentan-1-one] | < 10 µM
19 | CC1CN1CC(C(=O)N1CCN(c2ncnc3c2[C@H](C)SC3)CC1)c1ccc(Cl)cc1 (stereo partly drawn) [Example 74, 2-(4-chlorophenyl)-1-(4-((S)-5-methyl-5,7-dihydrothieno[3,4-d]pyrimidin-4-yl)piperazin-1-yl)-3-(2-methylaziridin-1-yl)propan-1-one] | < 10 µM
20 | C[C@H]1SCc2ncnc(N3CCN(C(=O)C(CC(C)(C)N)c4ccc(Cl)c(F)c4)C[C@@H]3C)c21 (stereo partly drawn) [Example 61, 4-amino-2-(4-chloro-3-fluorophenyl)-4-methyl-1-((S)-3-methyl-4-((R)-5-methyl-5,7-dihydrothieno[3,4-d]pyrimidin-4-yl)piperazin-1-yl)pentan-1-one] | < 10 µM
21 | C[C@@H]1SCc2ncnc(N3CCN(C(=O)C(CC4(N)CC4)c4ccc(Cl)c(F)c4)CC3)c21 (stereo partly drawn) [Example 32, 3-(1-aminocyclopropyl)-2-(4-chloro-3-fluorophenyl)-1-(4-((S)-5-methyl-5,7-dihydrothieno[3,4-d]pyrimidin-4-yl)piperazin-1-yl)propan-1-one] | < 10 µM
22 | C[C@H]1SCc2ncnc(N3CCN(C(=O)[C@H](N)Cc4ccc(Cl)cc4)CC3)c21 [Example 36, (R)-2-amino-3-(4-chlorophenyl)-1-(4-((R)-5-methyl-5,7-dihydrothieno[3,4-d]pyrimidin-4-yl)piperazin-1-yl)propan-1-one] | < 10 µM
23 | CC1SCc2ncnc(N3CCN(C(=O)[C@H](N)Cc4ccc(Cl)cc4)CC3)c21 (stereo partly drawn) [Example 16, (2R)-2-amino-3-(4-chlorophenyl)-1-(4-(5-methyl-5,7-dihydrothieno[3,4-d]pyrimidin-4-yl)piperazin-1-yl)propan-1-one] | < 10 µM
24 | C[C@@H]1SCc2ncnc(N3CCN(C(=O)[C@H](N)Cc4ccc(Cl)cc4)CC3)c21 [Example 27, (R)-2-amino-3-(4-chlorophenyl)-1-(4-((S)-5-methyl-5,7-dihydrothieno[3,4-d]pyrimidin-4-yl)piperazin-1-yl)propan-1-one] | < 10 µM
25 | C[C@H]1SCc2ncnc(N3CCN(C(=O)C(CC(C)(C)N)c4ccc(Cl)cc4)CC3)c21 (stereo partly drawn) [Example 44, 4-amino-2-(4-chlorophenyl)-4-methyl-1-(4-((R)-5-methyl-5,7-dihydrothieno[3,4-d]pyrimidin-4-yl)piperazin-1-yl)pentan-1-one] | < 10 µM
26 | C[C@H]1SCc2ncnc(N3CCN(C(=O)C(CC(C)(C)N)c4ccc(F)c(F)c4)CC3)c21 (stereo partly drawn) [Example 47, 4-amino-2-(3,4-difluorophenyl)-4-methyl-1-(4-((R)-5-methyl-5,7-dihydrothieno[3,4-d]pyrimidin-4-yl)piperazin-1-yl)pentan-1-one] | < 10 µM
27 | Cc1ccc(C(CNC(C)C)C(=O)N2CCN(c3ncnc4c3[C@H](C)SC4)CC2)cc1 (stereo partly drawn) [Example 66, 3-(isopropylamino)-1-(4-((S)-5-methyl-5,7-dihydrothieno[3,4-d]pyrimidin-4-yl)piperazin-1-yl)-2-p-tolylpropan-1-one] | < 10 µM
28 | C[C@@H]1SCc2ncnc(N3CCN(C(=O)C(CC(C)(C)N)c4ccc(Cl)c(F)c4)CC3)c21 (stereo partly drawn) [Example 34, 4-amino-2-(4-chloro-3-fluorophenyl)-4-methyl-1-(4-((S)-5-methyl-5,7-dihydrothieno[3,4-d]pyrimidin-4-yl)piperazin-1-yl)pentan-1-one] | < 10 µM
29 | C[C@@H]1SCc2ncnc(N3CCN(C(=O)[C@H](N)Cc4ccc(Cl)c(F)c4)C[C@@H]3C)c21 [Example 6, (R)-2-amino-3-(4-chloro-3-fluorophenyl)-1-((S)-3-methyl-4-((S)-5-methyl-5,7-dihydrothieno[3,4-d]pyrimidin-4-yl)piperazin-1-yl)propan-1-one dihydrochloride] | < 10 µM
30 | CCC1c2c(ncnc2N2CCN(C(=O)[C@H](N)Cc3ccc(Cl)c(F)c3)CC2)CS1(=O)=O (stereo partly drawn) [Example 72, (2R)-2-amino-3-(4-chloro-3-fluorophenyl)-1-(4-(5-ethyl-6,6-dioxido-5,7-dihydrothieno[3,4-d]pyrimidin-4-yl)piperazin-1-yl)propan-1-one] | < 10 µM
31 | C[C@@H]1SCc2ncnc(N3CCN(C(=O)[C@H](CC(C)(C)N)c4ccc(Cl)cc4)CC3)c21 [Example 64, (R)-4-amino-2-(4-chlorophenyl)-4-methyl-1-(4-((S)-5-methyl-5,7-dihydrothieno[3,4-d]pyrimidin-4-yl)piperazin-1-yl)pentan-1-one] | < 10 µM
